Laboratory results: PubChem BioAssay AID1259285 (Sanger Institute, 2017)
The whole screen tested 794 reagents; below is a random part of them. 20 of all reagents (2.5%) count as active. 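Calls rest on the drug-free arm alone and ignore synergy scores; viability ratios seem to be capped at 1.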 The record does not give: the amount of reagent, the time to read-out.

Screen: 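Kinase knock-downs that reduce colorectal cancer cell viability or act with drugs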 (primary screen)
Cell system: human HCC56 colorectal cancer cells
Reagents: siRNA pool against human genes
Treatment: DMSO vehicle, or anchor drug BYL719 at 1 µM, cetuximab at 5 µg/ml, or trametinib at 10 nM
Read-out: 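Viability as a ratio to non-targeting pool wells, averaged over replicates and turned into a robust z-score; synergy scores with BYL719, cetuximab or trametinib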
Reading the numbers: viability robust z-score, no drug: higher = more viable cells, weaker knock-down effect; viability vs non-targeting pool, no drug: higher = more viable cells; synergy score with BYL719: higher = stronger combined killing with BYL719; synergy score with cetuximab: higher = stronger combined killing with cetuximab; synergy score with trametinib: higher = stronger combined killing with trametinib
Hit rule: 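a knock-down counts as essential if its viability z-score without drug is under -3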
Meaning of the calls: active = essential without drug; inactive = no change without drug

| target | viability robust z-score, no drug | viability vs non-targeting pool, no drug | synergy score with BYL719 | synergy score with cetuximab | synergy score with trametinib | call |
| --- | --- | --- | --- | --- | --- | --- |
| GALK1 | -4.56 | 0.569 | -0.043 | -0.0808 | -0.0166 | active |
| PAK2 | 0.458 | 1 | -0.162 | -0.127 | -0.0219 | inactive |
| MAPK3 | -2.23 | 0.769 | 0.0307 | 0.0766 | 0.0599 | inactive |
| CIT | -2.81 | 0.719 | 0.107 | 0.0641 | 0.0707 | inactive |
| CLK3 | 0.458 | 1 | 0.0158 | -0.0945 | 0.0441 | inactive |
| CDK13 | 0.458 | 1 | -0.0866 | -0.142 | -0.0758 | inactive |
| BMX | 0.458 | 1 | -0.162 | -0.142 | -0.00844 | inactive |
| NADK | 0.458 | 1 | -0.0577 | -0.0697 | -0.04 | inactive |
| RSKR | 0.458 | 1 | -0.162 | -0.142 | -0.0119 | inactive |
| CDK6 | -0.697 | 0.901 | 0.00919 | -0.121 | 0.00787 | inactive |
| IRAK3 | -0.299 | 0.935 | 0.124 | -0.0086 | 0.0519 | inactive |
| PRKCQ | -0.991 | 0.875 | -0.0304 | 0.0244 | 0.066 | inactive |
| TRIM27 | 0.458 | 1 | 0.076 | -0.0984 | -0.0558 | inactive |
| ULK3 | 0.458 | 1 | -0.125 | -0.142 | -0.11 | inactive |
| ITPK1 | -0.0921 | 0.953 | 0.0593 | 0.124 | 0.0193 | inactive |
| RBKS | 0.458 | 1 | -0.162 | -0.142 | -0.176 | inactive |

Limited to “viability robust z-score, no drug”, for 4 of the entries above:
CLK3 = 0.458
CDK13 = 0.458
BMX = 0.458
NADK = 0.458

Continued:
| target | viability robust z-score, no drug | viability vs non-targeting pool, no drug | synergy score with BYL719 | synergy score with cetuximab | synergy score with trametinib | call |
| --- | --- | --- | --- | --- | --- | --- |
| LRRK2 | -1.13 | 0.864 | -0.00458 | 0.0205 | 0.0317 | inactive |
| STK38L | -2.22 | 0.77 | -0.103 | -0.163 | 0.202 | inactive |
| GOLGA5 | 0.453 | 1 | -0.133 | -0.0522 | -0.0206 | inactive |
| MECOM | 0.458 | 1 | -0.162 | -0.142 | -0.0304 | inactive |
| MELK | 0.458 | 1 | -0.156 | -0.142 | -0.106 | inactive |
| PIM2 | 0.247 | 0.982 | 0.0942 | 0.0583 | 0.0214 | inactive |
| PKM | -0.605 | 0.909 | 0.128 | 0.0758 | 0.0191 | inactive |
| CAMKK1 | 0.458 | 1 | 0.0104 | -0.0127 | 0.0267 | inactive |
| PANK1 | 0.458 | 1 | -0.117 | -0.142 | -0.187 | inactive |
| PDK4 | 0.458 | 1 | -0.0272 | -0.00765 | -0.0224 | inactive |
| MERTK | 0.458 | 1 | -0.0282 | 0.0159 | -0.00509 | inactive |
| PINK1 | -1.12 | 0.864 | -0.00507 | -0.101 | 0.0114 | inactive |
| PANK2 | 0.458 | 1 | -0.162 | -0.142 | -0.083 | inactive |
